Results as given in US20170121773A1.
No constants are given. Whether binding was seen depends on the method and setting. Binding seen in cells or lysates may run through a third protein. Some binding calls cover weakened binding; strength is not graded here.

Amino acid sequences for entries named in this document (tags omitted). Residues count along the entry.
UniProt Q61362, residues 30-389: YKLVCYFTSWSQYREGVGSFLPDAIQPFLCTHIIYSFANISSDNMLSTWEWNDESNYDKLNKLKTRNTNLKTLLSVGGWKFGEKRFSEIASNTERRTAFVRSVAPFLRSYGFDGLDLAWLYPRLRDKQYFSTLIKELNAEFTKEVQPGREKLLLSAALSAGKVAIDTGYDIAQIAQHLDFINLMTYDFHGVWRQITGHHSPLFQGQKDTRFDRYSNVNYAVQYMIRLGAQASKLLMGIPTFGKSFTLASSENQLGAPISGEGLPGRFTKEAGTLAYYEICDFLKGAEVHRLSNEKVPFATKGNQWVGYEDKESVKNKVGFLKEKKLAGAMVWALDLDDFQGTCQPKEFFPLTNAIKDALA

Tests used:
[1] = target: T1, CRTH2 (chemoattractant homologous receptor expressed on Th2 cells), endogenous mouse protein (mouse) (UniProt Q9Z2J6); experiment: co-immunoprecipitation from mouse lung lysates (FIG. 6A legend)
T1 sequence (looked up): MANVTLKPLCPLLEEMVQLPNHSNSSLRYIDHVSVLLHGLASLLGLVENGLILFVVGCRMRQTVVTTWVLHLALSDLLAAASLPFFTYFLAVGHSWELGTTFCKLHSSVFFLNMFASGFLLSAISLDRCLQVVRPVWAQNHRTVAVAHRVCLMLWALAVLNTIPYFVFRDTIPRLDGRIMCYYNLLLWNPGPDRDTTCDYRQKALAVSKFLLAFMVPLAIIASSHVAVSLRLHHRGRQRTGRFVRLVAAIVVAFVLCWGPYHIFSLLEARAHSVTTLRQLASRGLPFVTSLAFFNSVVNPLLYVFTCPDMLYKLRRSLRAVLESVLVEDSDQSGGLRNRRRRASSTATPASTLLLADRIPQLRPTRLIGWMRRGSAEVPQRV

[2] = target: T1, CRTH2 (chemoattractant homologous receptor expressed on Th2 cells), endogenous mouse protein (mouse); experiment: co-immunoprecipitation (summary in the discussion of Example 1)
[3] = target: T1, CRTH2 (chemoattractant homologous receptor expressed on Th2 cells), endogenous mouse protein (mouse); experiment: co-immunoprecipitation from mouse lung lysates (WT and IL-13 Tg), Western immunoblot

binding [1]: binds | binding [2]: binds | binding [3]: binds
Substance: CHI3L1 (chitinase 3-like-1), endogenous mouse protein in lung lysate (from UniProt Q61362 30-389) (ligand)
